The source of these data is PMC3898874.

The chains behind the UniProt entries cited, without tags or fusion partners.
UniProt P42224: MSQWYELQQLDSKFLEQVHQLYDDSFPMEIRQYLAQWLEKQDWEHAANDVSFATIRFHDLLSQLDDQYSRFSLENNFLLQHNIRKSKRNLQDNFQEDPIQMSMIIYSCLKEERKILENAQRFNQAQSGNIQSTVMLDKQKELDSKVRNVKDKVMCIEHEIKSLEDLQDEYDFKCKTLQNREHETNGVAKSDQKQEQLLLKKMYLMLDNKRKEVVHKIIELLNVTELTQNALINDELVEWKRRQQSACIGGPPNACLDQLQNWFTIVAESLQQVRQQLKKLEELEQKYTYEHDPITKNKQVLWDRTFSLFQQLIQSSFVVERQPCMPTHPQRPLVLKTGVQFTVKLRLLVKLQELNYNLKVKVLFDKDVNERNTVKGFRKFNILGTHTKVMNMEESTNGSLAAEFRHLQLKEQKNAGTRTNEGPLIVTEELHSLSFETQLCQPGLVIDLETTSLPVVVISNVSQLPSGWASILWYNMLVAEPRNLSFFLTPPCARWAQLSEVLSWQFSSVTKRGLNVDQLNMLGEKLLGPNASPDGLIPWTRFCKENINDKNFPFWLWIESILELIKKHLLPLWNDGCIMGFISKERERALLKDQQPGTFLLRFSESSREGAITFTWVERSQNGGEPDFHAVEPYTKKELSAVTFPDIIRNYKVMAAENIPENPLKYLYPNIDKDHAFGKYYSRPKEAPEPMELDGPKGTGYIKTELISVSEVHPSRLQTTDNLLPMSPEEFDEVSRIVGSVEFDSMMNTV
UniProt P49407: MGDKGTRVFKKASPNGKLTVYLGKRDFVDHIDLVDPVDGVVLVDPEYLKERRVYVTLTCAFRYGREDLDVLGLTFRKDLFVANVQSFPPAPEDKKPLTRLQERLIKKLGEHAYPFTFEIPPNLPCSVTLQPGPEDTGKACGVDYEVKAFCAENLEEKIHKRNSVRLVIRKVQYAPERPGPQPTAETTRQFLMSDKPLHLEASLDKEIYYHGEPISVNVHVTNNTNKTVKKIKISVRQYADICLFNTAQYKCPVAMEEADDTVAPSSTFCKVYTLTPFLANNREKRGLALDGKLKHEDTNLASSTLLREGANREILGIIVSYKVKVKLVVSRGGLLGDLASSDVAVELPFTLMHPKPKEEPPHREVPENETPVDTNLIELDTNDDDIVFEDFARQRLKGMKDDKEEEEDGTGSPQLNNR

For this experiment, the target named is FLAG-tagged STAT1 (signal transducer and activator of transcription 1) (UniProt P42224). Description: co-IP; anti-FLAG M2 immunoprecipitation (protein A/G PLUS agarose, 4°C) from soluble whole-cell extracts (500 μg protein) of co-transfected HEK293T cells, untreated or treated 1 h with 50 U/ml IFNγ; extraction and wash buffer with 280 mM NaCl, 0.5% NP-40, 50 mM Tris/HCl pH 7.4; quantitative blots with anti-GFP and anti-β-arrestin1; control IP without FLAG-tagged STAT1.

Results are given in words; binding and its absence hold for the method and conditions named. Binding seen in cells or lysates may run through a third protein.

For the substance “human β-arrestin1-GFP (from UniProt P49407 1-418)”, the binding result is listed as “no binding”.
